Reference: PubChem BioAssay AID1347131 (National Center for Advancing Translational Sciences (NCATS), 2019)
“And” between values parts separate entries of the source, which are not always exact repeats. Identical values can stand only once. About 2,000 (0.49%) of roughly 410,000 compounds were called active. This list was built around the results that the source calls inconclusive (neither active nor inactive); the mix of calls is not that of the screen. Calls come from the whole dose curve; tested in HEK293 reporter line. Potencies beside an inconclusive call are fits to weak or partial responses and may not hold up.

Test: qHTS Assay for Foot and Mouth Disease Virus Antivirals: Primary Screen against the MLPCN compound library; note: nearly all actives have a fitted effect of over 55% in size
Details: FMDV antiviral cell-based qHTS; activity, negative = inhibition: at 57.9 µM (top of the series)
Potency is the fitted concentration of half-maximal effect.

| SMILES | Potency | activity, negative = inhibition |
| --- | --- | --- |
| CC(=O)NNC(=S)NC(=O)C(c1ccccc1)c1ccccc1 | inactive | – |
| O=C1ON=C(c2ccccc2)/C1=C/c1ccc(OS(=O)(=O)c2ccccc2)cc1 | inconclusive: 31.6 µM [inhibitor, partial curve, poor fit] | – |
| Cc1c(N2C(=O)/C(=C3\C(=O)N(CC(=O)O)c4ccccc43)SC2=S)c(=O)n(-c2ccccc2)n1C | inconclusive: 25.1 µM [inhibitor, single point] | – |
| CC(C(=O)NCC1CCCCC1)N(C)Cc1ccc(Cl)cc1 (stereo unspecified) | inconclusive: 31.6 µM [inhibitor, single point] | – |
| CC1=NOC(=O)/C1=C\c1ccc(-c2ccc(Br)cc2)o1 | inconclusive: 22.4 µM [inhibitor, single point] | – |
| CN(C)c1ccc(/C=C/c2ccc3ccccc3n2)cc1 | inactive | – |
| Cc1ccccc1N1CC(C(=O)Nc2ccc(S(=O)(=O)N3CCCCC3)cc2)CC1=O (stereo unspecified) | inconclusive: 12.6 µM [inhibitor, partial curve, poor fit] | – |
| Cc1ccc(-c2cn(-c3ccccc3)c3[n+]2CCCS3)cc1 | inconclusive: 10 µM [inhibitor, partial curve, poor fit] | – |
| COc1ccc(CCNC(=O)C(=O)NCC(c2cccs2)S(=O)(=O)c2ccc(F)cc2)cc1 (stereo unspecified) | inconclusive: 39.8 µM [inhibitor, single point] | – |
| Cc1occc1C(=O)N/N=C/c1ccc(N(C)C)cc1 | inconclusive: 14.1 µM [inhibitor, single point] | – |
| CC(C)(C)OC(=O)NCc1ccc(CNC(=O)c2[nH]cnc2C(=O)Nc2ccccc2F)cc1 | inconclusive: 20 µM [inhibitor, partial curve, poor fit] | – |
| CCC(=O)Nc1cccc(-c2ccc(N3CCCCC3)nn2)c1 | inconclusive: 20 µM [inhibitor, single point] | – |
| COc1cc(/C=C2/CCc3ccccc3C2=O)cc(OC)c1OC | inactive | – |
| O=C1C(Cl)=C(Nc2ccc(O)cc2)C(=O)c2ccccc21 | inconclusive: 31.6 µM [inhibitor, partial curve, poor fit] | – |
| CCC(Sc1nc2n[nH]c(C)c2c(=N)n1-c1ccccc1Cl)C(=O)N(CC)CC (stereo unspecified) | inconclusive: 15.8 µM [inhibitor, partial curve, poor fit] | – |
| Cc1sc2ncnc(NCC(c3ccco3)N3CCCC3)c2c1C (stereo unspecified) | inactive | – |
| COc1ccccc1C(=O)N(c1ccc(C)cc1)S(=O)(=O)c1ccc(Cl)cc1 | inconclusive: 10 µM [inhibitor, partial curve] | – |
| O=C(C1CCCN(S(=O)(=O)c2cccc3nsnc23)C1)N1CCN(c2cccc(Cl)c2)CC1 (stereo unspecified) | inconclusive: 11.2 µM [inhibitor, partial curve, poor fit] | – |
| Brc1ccccc1CN1CCN(Cc2c[nH]c3ccccc23)CC1 | inactive | – |
| COC1=CC(=O)C=C(OC)C1=O | inconclusive: 28.2 µM [inhibitor, partial curve, poor fit] | – |
| Cc1nn2cc(-c3ccc(OC(C)C)cc3)nc2s1 | active: 14.1 µM | – |

| SMILES | Potency | activity, negative = inhibition |
| --- | --- | --- |
| Nc1cccc2c1C(=O)N(CCOc1ccccc1F)C2=O | active: 15.8 µM | – |
| Cc1nccc2[nH]c(=O)c(C(=O)NC3CCCCC3C)cc12 (stereo unspecified) | inconclusive: 7.08 µM [inhibitor, partial curve] | – |
| O=C(NC(=S)Nc1ccc(Oc2ccc(Cl)cc2)cc1)c1ccccc1 | inconclusive: 7.94 µM [inhibitor, partial curve] | – |
| COc1cc(/C=C2/C(=N)N3C=CSC3=NC2=O)ccc1OCCCOc1c(C)cccc1C | inconclusive: 22.4 µM [inhibitor, single point] | – |
| O=C(OCC(=O)N(c1ccccc1)C1CCCCC1)c1ccc(CO)cc1 | inconclusive: 12.6 µM [inhibitor, partial curve, poor fit] | – |
| CCC(/C=C1\Sc2ccc(OC)cc2N1CC)=C\c1sc2ccc(OC)cc2[n+]1CCCS(=O)(=O)[O-] | inconclusive: 17.8 µM [inhibitor, partial curve, poor fit] | – |
| CC(=O)Nc1ccc(OCC(O)Cn2c3ccccc3c3ccccc32)c(C)c1 (stereo unspecified) | inconclusive: 22.4 µM [inhibitor, partial curve, poor fit] | – |
| COc1ccc(C(=O)Nc2ccc3ncccc3c2)cc1 | inconclusive: 10 µM [inhibitor, single point] | – |
| Cc1ccc(Cl)cc1NC1=C/C(=N\S(=O)(=O)c2cccs2)c2ccccc2C1=O | inconclusive: 8.91 µM [inhibitor, partial curve, poor fit] and inconclusive: 14.1 µM [inhibitor, partial curve, poor fit] | – |
| Cc1ccccc1S(=O)(=O)Cc1ccc(C(=O)N2CCN(c3cccc(C)c3C)CC2)o1 | inconclusive: 25.1 µM [inhibitor, partial curve, poor fit] | – |
| COCCn1c(C)cc(C(=O)COC(=O)CNC(=O)c2ccccc2)c1C | inconclusive: 25.1 µM [inhibitor, partial curve, poor fit] | – |
| CCCOc1ccc(N2C(=O)CC(SCCc3nc4ccccc4[nH]3)C2=O)cc1 (stereo unspecified) | – | inconclusive: -35.8% [inhibitor] |
| O=C(Nc1nc(-c2ccccn2)cs1)c1ncc(Cl)c(Cl)c1Cl | inconclusive: 3.98 µM [inhibitor, full curve] | – |
| CCOC(=O)c1cc2c(C)n(-c3ccc(C)cc3)c(C)c2ccc1=O | inconclusive: 10 µM [inhibitor, partial curve, poor fit] | – |
| CCCn1c(CN(Cc2ccccc2)Cc2ccccc2)nc2c1c(=O)n(C)c(=O)n2C | inconclusive: 25.1 µM [inhibitor, partial curve, poor fit] | – |
| COc1ccccc1CNc1nc(NCc2cccc(OC)c2OC)c2sccc2n1 | inconclusive: 39.8 µM [inhibitor, partial curve, poor fit] | – |
| COc1ccc(Nc2nc(-c3cccc([N+](=O)[O-])c3)nc3ccccc23)cc1 | inconclusive: 39.8 µM [inhibitor, partial curve, poor fit] | – |
| O=C(/C=C\Nc1ccc2c(c1)OCO2)c1ccc2c(c1)OCO2 | active: 17.8 µM | – |
| CCn1cc(CNC(=O)CC2C(=O)NCCN2CC(c2ccccc2)c2ccccc2)cn1 (stereo unspecified) | inconclusive: 2 µM [inhibitor, full curve] | – |
| CCn1c(SCC(=O)Nc2nc(-c3ccccc3)cs2)nnc1-c1ccccc1O | inconclusive: 35.5 µM [inhibitor, partial curve, poor fit] | – |
| CCOc1ccc2nc(NS(=O)(=O)c3ccc(NC(C)=O)cc3)sc2c1 | inactive | – |

| SMILES | Potency | activity, negative = inhibition |
| --- | --- | --- |
| Clc1ccc(Cc2ccc(SCc3ccccc3)nn2)c(Cl)c1 | inconclusive: 10 µM [inhibitor, partial curve] | – |
| Cc1ccc(NN2C(=O)C=C(c3ccccc3)C2=O)cc1 | inconclusive: 20 µM [inhibitor, partial curve, poor fit] | – |
| O=C(COC(=O)C1(c2ccc(F)cc2)CCCC1)NCc1ccc2c(c1)OCO2 | inconclusive: 39.8 µM [inhibitor, partial curve, poor fit] | – |
| CCCCc1ccc(-n2nc3ccc(NC(=O)c4cc5ccccc5o4)cc3n2)cc1 | inconclusive: 25.1 µM [inhibitor, single point] | – |
| Cc1ccc(-c2cc3cccc[n+]3cc2-c2ccc(C)cc2)cc1 | inconclusive: 39.8 µM [inhibitor, partial curve, poor fit] | – |
| COc1ccc2[nH]cc(CCNc3ccnc(-c4c(C)noc4C)n3)c2c1 | inactive | – |
| COc1ccc(Oc2ncc3nc(-c4ccc(Cl)cc4)c(=O)n(CCC#N)c3n2)cc1 | inactive | – |
| COc1ccc(F)cc1-c1cc(NC=O)c2ncc(-c3cc(OC)c(OC)c(OC)c3)n2c1 | inconclusive: 31.6 µM [inhibitor, partial curve, poor fit] | – |
| CCOC(=O)N1CCN(C(=O)C[C@@H]2C[C@@]3(C(=O)OCC)CCCC=C3N(Cc3ccc4c(c3)OCO4)C2=O)CC1 | inconclusive: 3.98 µM [inhibitor, partial curve] | – |
| CCCNC(=O)c1ccc(-c2nc3ccccc3s2)s1 | active: 14.1 µM | – |
| O=C(CN1CCCCC1)NCC(=O)Nc1ccc(Br)cc1C(=O)c1ccccc1 | inconclusive: 20 µM [inhibitor, single point] | – |
| CC[C@]1(c2ccccc2OC)ON(c2ccccc2C(F)(F)F)C1=O | inconclusive: 22.4 µM [inhibitor, partial curve, poor fit] | – |
| C/C(=N\Nc1ccc(S(N)(=O)=O)cc1[N+](=O)[O-])c1ccc2c(c1)OCO2 | inconclusive: 35.5 µM [inhibitor, single point] | – |
| CCOC(=O)c1ccc(NC(=O)c2ccc(OC(C)C)c(OC)c2)cc1 | inconclusive: 39.8 µM [inhibitor, partial curve, poor fit] | – |
| NC(=O)c1cccn(Cc2ccc(C(F)(F)F)cc2)c1=O | inactive | – |
| Cc1ccc(Cn2cnc3c(cnn3C(C)(C)C)c2=O)cc1 | inconclusive: 25.1 µM [inhibitor, partial curve, poor fit] | – |
| O=C(N/N=C\c1ccccn1)c1ccccc1O | inconclusive: 22.4 µM [inhibitor, single point] | – |
| CCc1nc2ccccc2c(C(=O)OCC(=O)Nc2ccc(NC(C)=O)cc2)c1C | inconclusive: 31.6 µM [inhibitor, partial curve, poor fit] | – |
| Cc1ccc(-n2ncc3c(N(C)C)ncnc32)cc1Cl | inconclusive: 12.6 µM [inhibitor, single point] | – |
